Paper PMC9197937
These are yes or no findings as the source states them, for the method shown. Some binding calls cover weakened binding; strength is not graded here.

Target: T1, Strep-Pmt1 nascent chain stalled at the triple-proline motif (PPP construct) (S. cerevisiae) (UniProt P33775)
T1 sequence (chain, nascent chain-tRNA (NC-tRNA)): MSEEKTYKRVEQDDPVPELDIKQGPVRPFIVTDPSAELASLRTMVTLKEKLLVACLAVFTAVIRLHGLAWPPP
Test: cryo-EM structure; RNC-RAC sample: purified RNC-RAC supplemented with RAC (1:4); states C1-C4, State C2 at 3.0 Å (Map 3.5), RAC region by local refinement (Map 3.6); both purified

binding: binds
B1: Zuo1 of recombinant RAC (protein, UniProt P32527 1-433)
chain: MFSLPTLTSDITVEVNSSATKTPFVRRPVEPVGKFFLQHAQRTLRNHTWSEFERIEAEKNVKTVDESNVDPDELLFDTELADEDLLTHDARDWKTADLYAAMGLSKLRFRATESQIIKAHRKQVVKYHPDKQSAAGGSLDQDGFFKIIQKAFETLTDSNKRAQYDSCDFVADVPPPKKGTDYDFYEAWGPVFEAEARFSKKTPIPSLGNKDSSKKEVEQFYAFWHRFDSWRTFEFLDEDVPDDSSNRDHKRYIERKNKAARDKKKTADNARLVKLVERAVSEDPRIKMFKEEEKKEKERRKWEREAGARAEAEAKAKAEAEAKAKAESEAKANASAKADKKKAKEAAKAAKKKNKRAIRNSAKEADYFGDADKATTIDEQVGLIVDSLNDEELVSTADKIKANAAGAKEVLKESAKTIVDSGKLPSSLLSYFV
